# Laboratory results from patent US11028364B2, “Compositions and methods for modulating an immune response” (President and Fellows of Harvard College, priority 2015, dated 2021).
# For at least one compound, name, drawing or mass did not settle the structure.
# Test system: B cells cultured with TFH cells
# Assay: in vitro cultures of B and TFH cells (activated culture) with addition of pathway/metabolic inhibitors
# Assay type: cell-based, mice
# Conditions: inhibitor added to activated culture (B + TFH), anti-CD3/IgM
# Protocol: To determine the mechanisms of how TFH and B cells are altered during direct TFR suppression, an in vitro suppression assay in which TFR cells are cultured with TFH and B cells was utilized. See e.g., Sage et al., J Clin Invest 124, 5191-5204 (2014); Sage et al., Immunity 41, 1026-1039 (2014); Sage et al., Methods Mol Biol 1291, 151-160 (2015). For these assays, FoxP3IRES-GFP mice were immunized with NP-OVA (emulsified in CFA) subcutaneously and isolated draining lymph nodes 7 days later. TFR (sorted as CD4+ICOS+CXCR5+CD19− FoxP3+) cells were added to co-cultures of B (sorted as CD19+) and TFH (sorted as CD4+ICOS+CXCR5+CD19−FoxP3) cells along with anti-CD3 and anti-IgM for 2 to 6 days (FIG. 1A, FIG. 36A, and FIG. 36B).
# To determine if suppressing Myc in activated B cells could recapitulate TFR suppression, in vitro suppression assays were performed in which B cells were cultured with TFH cells, TFH and TFR cells, or TFH cells and the Myc inhibitor 10058-F4 (F4w).
# The mTOR pathway promotes protein synthesis during activation and has been linked to enhancing cellular metabolism. […] In vitro cultures of B and TFH cells were performed along with either the mTORc1 inhibitor rapamycin or TFR cells. […] Akt can act both upstream and downstream of mTOR to mediate activation signaling. […]
# Therefore, whether inhibitors of purine metabolism could recapitulate TFR suppression in vitro was determined.
smiles,measurement,value
"O=C(O)C(Cl)Cl [DCA, dichloroacetate]",secreted antibody / antibody production in culture supernatants,did not alter
